Assay results taken from patent US20190023770A1.
Results are given in words; binding and its absence hold for the method and conditions named. Some entries that bind do so weakly or less than the wild type.

Target: recombinant hemagglutinin H3 from human influenza A virus strain A/Perth/16/2009, extracellular domain residues 25-520 (influenza A virus A/Perth/16/2009) (UniProt O11283)
Assay: co-crystal structure at 3.1 A; complex isolated by size exclusion chromatography

B1: mAb 39.29 NCv1 Fab fragment (Fab, V domains shown)
VH: QVQLVESGGGVVQPGKSPRLSCAASGPTFSSYAVHWVRQAPGKGLEWVTLISYDGANQYYADSVKGRFTISRDNSKNTVYLQMNSLRPEDTAVYYCAVPGPVFGIFPPWSYFDNWGQGILVTVSS
VL: EIVLTQSPATLSVSPGERATLSCRASQVISHNLAWYQQKPGQAPRLLIYGASTRASGIPARFSGSGSGTDYTLTITSLQPEDFAVYYCQHYSNWPPRLTFGGGTKVEIK
B1 was tested, and the binding was “binds”.
